Values from PubChem BioAssay AID686943 (Drosophila RNAi Screening Center, 2013).
In all, the deposit lists about 23,000 reagents; below is an unselected part of those with a known target gene and a result. 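Extra replicates exist only for a retested subset of genes; insulin dose and duration not given; both raised and lowered dpERK matter.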 Reagents against one gene are numbered here. Names joined by + are all predicted targets of the reagent. The record does not give: the amount of reagent, the time to read-out.

Assay: 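Search across the genome for regulators of signalling from receptor tyrosine kinase to ERK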 (primary screen)
Cells: Drosophila S2R+ haemocyte-like cells expressing YFP-tagged ERK (Rolled)
Reagents: long dsRNA against Drosophila genes
Treatment: insulin stimulation versus unstimulated cells; dose and duration not given
Read-out: 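Antibody staining for doubly phosphorylated ERK divided by ERK-YFP signal, as plate z-scores, in insulin-treated and untreated cells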
Scale: replicate 1, z-score of dpERK with insulin and replicate 2, z-score of dpERK with insulin: higher = more active ERK per ERK-YFP after insulin; replicate 1, z-score of dpERK under basal conditions: higher = more basal active ERK per ERK-YFP; replicate 1, z-score of ERK-YFP with insulin: higher = more YFP-tagged ERK signal

target,reagent no.,"replicate 1, z-score of dpERK with insulin","replicate 2, z-score of dpERK with insulin","replicate 1, z-score of dpERK under basal conditions","replicate 1, z-score of ERK-YFP with insulin"
Lipt2 (Lipoyl(octanoyl) transferase 2),1,-0.09,1.22,-0.13,0.08
Lipt2 (Lipoyl(octanoyl) transferase 2),2,-0.27,0.32,0.21,0.11
CG2218,1,0.91,-0.42,-0.24,-0.24
lilli (lilliputian),1,2.78,1.66,0.02,-3.45
CG4572,1,0.58,0.22,-0.51,-0.53
CG30403,1,0.31,0.95,0.56,0.52
CG8086,1,0.6,0.04,-0.17,-0.74
CG8086,2,0.29,0.28,-0.43,0.43
Socs16D (Suppressor of Cytokine Signaling at 16D),1,0.51,1.32,-0.11,-0.47
RpL12 (Ribosomal protein L12),1,-3.28,-1.29,-3.42,-2.29
CG12547,1,0.6,0.45,0.68,0.26
CG15130,1,-0.07,-1.14,-0.58,0.26
lmgA + lmgB,1,1.36,0.24,-0.61,-0.95
CG4646,1,-0.48,-0.83,0.32,0.05
CG43393,1,-0.91,-0.53,-1.77,0.33
CG11180,1,0.46,1.67,0.55,0.68
bcn92,1,-0.15,0.47,0.21,0.42
CG10912,1,0.04,0.25,1.15,0.11
S-Lap7 (Sperm-Leucylaminopeptidase 7),1,1.09,0.69,-0.39,-0.01
CG14022,1,0.72,-0.23,0.73,-0.84
strat (stratum),1,0.16,0.5,0.45,0.09
Spp (Signal peptide peptidase),1,0.69,0.04,0.04,-0.27
CR46300 (pseudo),1,-0.25,1.7,-0.28,0.41
nenya,1,-0.07,0.47,0.52,0.17
CG7991,1,0.6,0.94,-0.36,-0.08
Kat60 (Katanin 60),1,0.88,0.82,-0.68,-0.45
CAH6 (Carbonic anhydrase 6),1,0.5,0,-1.17,-0.56
NKCC (sodium potassium chloride cotransporter),1,-0.76,0.43,0.25,-0.98
NKCC (sodium potassium chloride cotransporter),2,-0.04,0.85,0.42,-0.06
Mical (Molecule interacting with CasL),1,-0.45,-0.55,-0.1,0.93
Mical (Molecule interacting with CasL),2,0.85,0.83,,0.06
Mical (Molecule interacting with CasL),3,1.62,1.73,2.98,-0.35
Mical (Molecule interacting with CasL),4,0.46,0.12,1.61,0.13
Gr22f (Gustatory receptor 22f),1,0.05,0.43,1.13,-0.53
Ir94b (Ionotropic receptor 94b),1,0.44,0.68,0.43,-0.57
CG4884,1,0.36,0.44,-0.05,-1.15
CG11379,1,-0.44,0.37,0.48,0.76
CG14309,1,1.11,0.05,0.9,-0.04
Calr (Calreticulin),1,-0.22,-0.89,-0.31,-1.6
CG6220,1,-0.34,1.2,0.61,1.19
alphaTub84B (alpha-Tubulin at 84B),1,-0.79,-1.79,3.07,-1.74
CG14478,1,0.98,0.65,0.82,-0.69
aos (argos),1,0.04,-0.1,1.32,0.24
CG1835,1,0.24,-0.06,-0.1,0
beta-Spec (beta Spectrin),1,-0.26,-0.36,-0.1,-0.33
Ntf-2 (Nuclear transport factor-2),1,0.71,1.72,-0.03,-1.03
BomS3 (Bomanin Short 3),1,0.07,-0.24,0.8,1.89
CG5043,1,0.04,0.42,-0.58,-0.19
mus81,1,-0.29,0.79,0.44,0.23
mus81,2,0.04,1.64,0,0.27
boly (borrelly),1,0.16,-0.22,-0.8,-0.62
wkd (whacked),1,0.09,0.54,1.17,0.46
Nrx-IV (Neurexin IV),1,0.16,0.67,-0.87,0.53
tomboy40,1,0.12,0.28,-0.01,-0.2
CG31954,1,0.37,-0.34,-0.45,0.08
CG9588,1,-0.1,0.53,-0.46,-0.14
CG13108,1,0.64,0.96,0.92,-0.63
Orco (Odorant receptor co-receptor),1,0.38,-0.24,0.89,0.27
CG15458,1,-0.87,0.27,-0.13,0.1
CG18449,1,-0.07,0.32,0.42,0.45
mtm (myotubularin),1,-0.77,-1.4,0.77,1.07
Larp7 (La related protein 7),1,-1.8,-1.31,-0.48,0.01
CG14082,1,1.01,0.24,-0.92,-0.5
CG4702,1,0.29,-0.03,-0.3,-0.52
MFS3 (Major Facilitator Superfamily Transporter 3),1,0.26,0.36,1.15,0.05
Phyhd1 (Phytanoyl-CoA dioxygenase domain containing 1),1,1.46,1.51,1.93,0.36
lncRNA:CR41601 (long non-coding RNA:CR41601),1,-0.04,0.08,0.73,0.68
Gbp3 (Growth-blocking peptide 3),1,-0.46,-0.19,-0.57,0.16
gpp (grappa),1,-2.22,-0.46,0.47,2.66
gpp (grappa),2,-2.67,-1.9,1.19,1.15
CG14194,1,-1.6,-0.51,-0.41,1.37
CG34049,1,1.03,-0.5,-0.84,-0.8
Nup188 (Nucleoporin 188kDa),1,-0.28,-0.53,0.06,-1.22

An excerpt taken from the entries so far, as a working copy:
target,reagent no.,"replicate 1, z-score of dpERK with insulin","replicate 2, z-score of dpERK with insulin","replicate 1, z-score of dpERK under basal conditions","replicate 1, z-score of ERK-YFP with insulin"
lmgA + lmgB,1,1.36,0.24,-0.61,-0.95
CG4646,1,-0.48,-0.83,0.32,0.05
CG43393,1,-0.91,-0.53,-1.77,0.33
CG11180,1,0.46,1.67,0.55,0.68
bcn92,1,-0.15,0.47,0.21,0.42
CG10912,1,0.04,0.25,1.15,0.11
S-Lap7 (Sperm-Leucylaminopeptidase 7),1,1.09,0.69,-0.39,-0.01
CG14022,1,0.72,-0.23,0.73,-0.84
strat (stratum),1,0.16,0.5,0.45,0.09
Spp (Signal peptide peptidase),1,0.69,0.04,0.04,-0.27
CR46300 (pseudo),1,-0.25,1.7,-0.28,0.41
nenya,1,-0.07,0.47,0.52,0.17
